Results are given in words; binding and its absence hold for the method and conditions named. In cells and extracts the contact can be indirect. Some entries that bind do so weakly or less than the wild type.
Experiments:
[1] = target: HDAC1 (human (endogenous in hiPSC-derived cardiomyocytes)) (UniProt Q13547); experiment: proximity ligation
[2] = target: HDAC1 of mouse hearts (mouse (endogenous in mouse ventricle)) (UniProt O09106); experiment: proximity ligation
[3] = target: HDAC1 of mouse hearts (mouse (endogenous in mouse ventricle)) (UniProt O09106); experiment: co-IP

Sequences of proteins named here, by UniProt entry; tags and fusion partners are left off. A change or cut given only in a name is not applied to a line headed by its entry.
UniProt O09106: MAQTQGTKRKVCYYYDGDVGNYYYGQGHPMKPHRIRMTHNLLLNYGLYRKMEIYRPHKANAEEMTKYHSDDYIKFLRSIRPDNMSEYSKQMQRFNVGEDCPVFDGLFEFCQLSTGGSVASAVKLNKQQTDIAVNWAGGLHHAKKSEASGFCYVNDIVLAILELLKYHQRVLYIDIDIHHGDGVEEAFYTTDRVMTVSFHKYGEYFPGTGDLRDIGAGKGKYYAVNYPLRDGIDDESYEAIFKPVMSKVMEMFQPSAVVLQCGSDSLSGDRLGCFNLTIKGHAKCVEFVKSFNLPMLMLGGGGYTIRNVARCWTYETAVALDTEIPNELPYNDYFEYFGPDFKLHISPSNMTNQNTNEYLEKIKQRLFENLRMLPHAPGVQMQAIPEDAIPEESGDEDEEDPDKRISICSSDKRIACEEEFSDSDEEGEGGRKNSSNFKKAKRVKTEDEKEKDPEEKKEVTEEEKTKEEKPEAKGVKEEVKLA
UniProt P50752: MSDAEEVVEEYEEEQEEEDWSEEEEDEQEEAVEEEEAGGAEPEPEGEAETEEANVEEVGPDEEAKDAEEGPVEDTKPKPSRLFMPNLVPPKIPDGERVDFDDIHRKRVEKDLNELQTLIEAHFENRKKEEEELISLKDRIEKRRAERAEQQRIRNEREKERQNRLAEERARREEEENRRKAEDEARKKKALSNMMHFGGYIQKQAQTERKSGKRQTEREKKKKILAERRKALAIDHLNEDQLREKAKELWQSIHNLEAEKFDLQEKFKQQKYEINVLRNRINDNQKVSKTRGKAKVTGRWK

Row | binding [1] | binding [2] | binding [3] | Substance
1 | binds |  |  | TNNT2 of Health-hCM (from UniProt P45379 1-298)
2 |  | binds | binds | TNNT2(WT) of wild type mouse hearts (from UniProt P50752 1-301)
3 |  | binds | binds | mutant TNNT2 of Tnnt2^R154W/R154W (TT) mouse hearts (from UniProt P50752 1-301)

— article doi:10.1101/2024.10.09.24314670
